# Assay results published in publication PMC3793001.
# Protein sequences, listed by entry. Tags and fused reporters are not part of them. Residues count along the entry.
# UniProt Q99720: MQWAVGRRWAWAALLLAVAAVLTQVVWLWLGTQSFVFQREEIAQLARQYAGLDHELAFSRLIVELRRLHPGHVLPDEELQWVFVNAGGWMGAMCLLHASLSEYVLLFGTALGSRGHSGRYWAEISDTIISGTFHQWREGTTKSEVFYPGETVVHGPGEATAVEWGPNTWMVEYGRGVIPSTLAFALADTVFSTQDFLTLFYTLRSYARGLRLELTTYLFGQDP
# UniProt P15209, residues 32-821: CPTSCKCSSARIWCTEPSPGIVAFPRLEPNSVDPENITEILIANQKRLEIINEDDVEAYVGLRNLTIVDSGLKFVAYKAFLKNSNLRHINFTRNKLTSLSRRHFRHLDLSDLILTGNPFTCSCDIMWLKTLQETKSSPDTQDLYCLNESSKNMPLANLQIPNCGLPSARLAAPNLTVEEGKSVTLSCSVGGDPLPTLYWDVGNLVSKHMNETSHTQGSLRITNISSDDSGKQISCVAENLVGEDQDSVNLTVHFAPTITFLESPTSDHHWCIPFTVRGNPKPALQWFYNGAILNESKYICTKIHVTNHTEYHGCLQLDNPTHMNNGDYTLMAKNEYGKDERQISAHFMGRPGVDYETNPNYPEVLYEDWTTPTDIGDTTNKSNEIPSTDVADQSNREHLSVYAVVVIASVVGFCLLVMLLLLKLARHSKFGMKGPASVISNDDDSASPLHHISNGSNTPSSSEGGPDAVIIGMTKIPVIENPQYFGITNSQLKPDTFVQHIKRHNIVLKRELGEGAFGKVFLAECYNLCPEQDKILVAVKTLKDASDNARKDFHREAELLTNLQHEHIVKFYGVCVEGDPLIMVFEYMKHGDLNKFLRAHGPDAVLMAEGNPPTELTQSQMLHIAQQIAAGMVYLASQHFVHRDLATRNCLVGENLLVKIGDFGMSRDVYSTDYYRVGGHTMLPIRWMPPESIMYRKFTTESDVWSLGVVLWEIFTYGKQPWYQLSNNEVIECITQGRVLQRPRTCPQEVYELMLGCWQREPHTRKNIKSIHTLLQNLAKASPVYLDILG
# UniProt O55242: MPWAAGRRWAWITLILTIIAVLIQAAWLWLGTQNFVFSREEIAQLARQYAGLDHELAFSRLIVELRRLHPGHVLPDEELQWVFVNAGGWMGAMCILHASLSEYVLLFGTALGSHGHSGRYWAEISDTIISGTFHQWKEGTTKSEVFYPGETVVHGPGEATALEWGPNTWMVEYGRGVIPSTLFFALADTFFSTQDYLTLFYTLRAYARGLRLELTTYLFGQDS
# These are yes or no findings as the source states them, for the method shown. Binding seen in cells or lysates may run through a third protein. Some entries that bind do so weakly or less than the wild type.
# Columns and labels:
# [1] = biological target: Myc-tagged full-length sigma-1 receptor (human) (UniProt Q99720); experiment: co-IP; HEK 293T cells transiently transfected with Sig-1R-Myc and/or HA-TrkB, with or without PRE-084 (10 µM, 1 h); lysis in 50 mM Tris-HCl pH 8.0, 150 mM NaCl, 1% NP-40, 1 mM EDTA, 10% glycerol; IP with anti-Myc or anti-HA antibody, 4°C; blots with anti-HA and anti-Myc
# [2] = biological target: HA-tagged full-length TrkB (UniProt P15209); experiment: as above
# [3] = biological target: Sigma-1 receptor (endogenous, cerebellar granule neurons) (mouse (endogenous in CGNs)) (UniProt O55242); experiment: co-IP; endogenous proteins in lysates of mouse CGNs, with or without PRE-084 (20 µM, 1 h); IP with anti-Sig-1R antibody, blots with anti-TrkB and anti-Sig-1R; lysis in 50 mM Tris-HCl pH 8.0, 150 mM NaCl, 1% NP-40, 1 mM EDTA, 10% glycerol, 4°C
substance,measurement,setting,value
HA-tagged full-length TrkB (from UniProt P15209 32-821) (receptor),binding,[1],binds
Myc-tagged full-length sigma-1 receptor (from UniProt Q99720 1-223),binding,[2],binds
"TrkB (endogenous, cerebellar granule neurons) (from UniProt P15209 32-821) (receptor)",binding,[3],binds
